Earlier results, collected in patent publication US12151062B2, “Compositions and devices to administer pharmaceutical compositions nasally” (BOARD OF REGENTS, THE UNIVERSITY OF TEXAS SYSTEM, priority 2016, dated 2024).
Like-named read-outs stand apart in the source and are kept apart here.

Conditions: rats

SMILES: CN1CC[C@]23c4c5ccc(O)c4O[C@H]2[C@@H](O)C=C[C@H]3[C@H]1C5 [Morphine]
- Brain/Plasma AUC ratio (after i.v. use): 0.1 after
- Brain/Plasma AUC ratio (solution (PBS buffer at pH 7.4), after i.n. use): of 3 after
